Assay results from PubChem BioAssay AID2685 (National Center for Advancing Translational Sciences (NCATS), 2010).
The list shows a part of the results. The main result of the screen is listed elsewhere. These columns were measured beside it and carry no call. Most of these compounds were active or inconclusive in the main read-out, so they are no random draw. Words in brackets tell the shape of the fitted curve; partial curves, single points and poor fits give uncertain potencies.

Test: qHTS Assay for Lipid Storage Modulators in Drosophila S3 Cells;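 as to cell number change: cells counted by Cell Tracker Red CMTPX staining in the red channel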
Details: BODIPY lipid droplet fluorescence, 18-24 h; for cell number change: measured here: cell count max response, cells fed with added oleic acid
Excerpt: NIH Molecular Libraries Probe Production Centers Network [MLPCN] NIH Chemical Genomics Center [NCGC] MLPCN Grant: 1 R03 MH085686-01 Assay Submitter (PI): Beller, Mathias; Max-Planck-Institut fur Biophysikalische Chemie NCGC Assay Overview: Storing lipids as a reservoir for energy or the anabolism of elementary metabolites is a common feature of probably all cells and is conserved from bacteria to humans. The universal cellular lipid storage organelle is the so-called lipid storage droplet (LD). Although ubiquitous, LDs share a simple structure composed of a hydrophobic core that harbors the storage lipids, which is shielded by a droplet-specific phospholipid monolayer to which proteins are attached. The current model of LD biogenesis involves an incorporation of the lipid core into the membrane leaflets of the endoplasmic reticulum (ER) followed by a subsequent budding-like maturation of a LD, which ultimately pinches off. Once released, LD volume can increase by localized lipogenesis or fusion of existing droplet. Storage lipids are re-mobilized enzymatically by lipase activity. Lipase regulation in the adipocyte is heavily studied and involves multiple components including catecholamine signaling, the LD-associated proteins Perilipin and comparative gene identification (CGI-58) and at least two lipases named hormone sensitive lipase (HSL) and adipocyte triglyceride lipase (ATGL). LD regulation outside of the adipocyte is poorly understood and only few components are known. However, there is an urgent need to learn more about ectopic fat depots as mislocalized storage of lipids, for example in the liver or muscle, is an eminent health problem associated with insulin resistance or the metabolic syndrome. We developed a laser-scanning cytometer assay to enable 1,536-well screening and combined the results of the small molecules screen with an RNAi database based on lipid storage.
Triacsin C (Sigma-Aldrich T-4540), an inhibitor of long-chain fatty acyl CoA synthetase that blocks synthesis of triglycerides, was used as a positive control for lipid under-storage. A total of 23 nL of compound solution of different concentrations were transferred to the assay plates using a Kalypsys pin tool equipped with a 1,536-pin array containing 10-nL slotted pins (FP1S10, 0.457-mm diameter, 50.8 mm long; V&P Scientific). One microliter of oleic acid (400 uM) was added, and the plate was lidded with stainless steel rubber gasket lined lids containing pinholes. […] Fluorescence was detected by excitation of the fluorophores with a 488-nm laser on an Acumen Explorer (TTP Lab Tech). The total intensity in channel 2 (500-530 nm) reflected lipid droplet accumulation. Cells were detected using channel 3 (575-640 nm) with 5-um width and 100-um depth filters. The ratio of the number of objects in PMT channel 2 over the number of objects in PMT channel 3 was also calculated. Percent activity was computed relative to an internal control (100% inhibited lipid droplet deposition due to the presence of 20 uM Triacsin C), which was added to 32 wells/plate.

[1] = measured here: cell number channel AC50, cells fed with added oleic acid
[2] = measured here: lipid fluorescence (Fed channel) AC50, cells fed with added oleic acid

Compound	cell number change [%]	AC50 [1]	AC50 [2]
COc1ccc(-c2cn(Cc3ccc(C(=O)NCc4ccc(C)cc4)cc3)c(C(C)N)n2)cc1 (configuration not stated)	-11.6	7.31 µM [falling, single point]	0.058 µM [falling, full curve, poor fit]
CC1CCCN(CCCOc2ccc([N+](=O)[O-])cc2)C1 (configuration not stated)	86.5	32.6 µM [rising, partial curve, poor fit]	20.6 µM [rising, single point]
COc1cc(/C=N/NC(=O)c2cc(C3CC3)[nH]n2)ccc1O	-13.2	1.03 µM [falling, full curve]	–
Cc1ccc(SCC(=O)Nc2ccc(S(=O)(=O)Nc3ncccn3)cc2)cc1	28.9	–	36.6 µM [rising, partial curve, poor fit]
COc1ccc(C)cc1NC(=O)NCc1ccco1	-44.8	–	–
CCOC(=O)c1sc(N)c(C#N)c1COC(=O)C1=COCCO1	-15.3	–	–
CCOc1ccc(Nc2nc3cc(S(=O)(=O)CC)ccc3o2)cc1	30.9	23.1 µM [rising, partial curve, poor fit]	0.00517 µM [rising, full curve, poor fit]
COC(=O)C1(C)NC(c2ccc(O)cc2)C2C(=O)N(c3ccc4c(c3)OCCO4)C(=O)C21 (configuration not stated)	57.5	14.6 µM [rising, partial curve]	–
Cc1n(C)c2cc(Cl)ccc2[n+]1Cc1ccccc1	14	–	–
CCC(=O)Nc1nnc(S(=O)(=O)N2CCCC2)s1	0.599	–	20.6 µM [rising, single point]
Cc1ccc(Cl)cc1NC(=O)COC(=O)CC1CCCCC1	36.4	–	3.66 µM [falling, single point]
CSc1nnc2n(C3CCCCC3)c(=O)c3c4c(sc3n12)CCCC4	-8.93	–	2.59 µM [falling, full curve]
O=C1CC2(CCN(C(=O)c3cccc(Cl)c3)CC2)Oc2ccccc21	-25	–	5.8 µM [falling, full curve, poor fit]
Cc1cccn2cc(CNS(=O)(=O)c3ccc4ccccc4c3)nc12	8.15	–	29.1 µM [falling, single point]
CCO[C@H]1OC(C(=O)N2CCN(Cc3ccccc3)CC2)=C[C@@H](C2CCCCC2)[C@@H]1CCCO	–	–	29.1 µM [falling, partial curve]
CC(=O)OC(C[N+]1(C)CCCCCC1)c1ccccc1 (configuration not stated)	21.3	–	–
CCCn1nnc(NC(=S)NC(=O)C(C)(C)C)n1	–	0.00517 µM [falling, full curve, poor fit]	–
O=c1c2[nH]c3cccc(Cl)c3c2ncn1CCN1CCCCC1	26.5	–	20.6 µM [rising, single point]
C=CCn1c(=O)c2ccccc2n2c(SCC(=O)N(C)C)nnc12	-5.56	0.731 µM [falling, partial curve, poor fit]	–
Cc1cc(=O)oc2c(C)c(OCC(=O)N3CCN(c4ccc(F)cc4)CC3)ccc12	11.2	–	20.6 µM [falling, single point]

Compound	cell number change [%]	AC50 [1]	AC50 [2]
CCOc1ccc(C2C(C(=O)c3ccco3)=C(O)C(=O)N2Cc2cccnc2)cc1 (configuration not stated)	-34.2	–	3.66 µM [falling, full curve]
COc1ccccc1OCC(=O)Nc1ccc2c(c1)OCCO2	11.1	–	–
COC(=O)N1C(=O)[C@@](Cc2ccccc2)(c2ccccc2)N1C(=O)OC	-6.89	–	–
CC(C)C(NC(=S)NCc1ccccc1)C(=O)O (configuration not stated)	21.9	–	–
Cc1ccc(C2=NS(=O)(=O)N(C)C(C(=O)Nc3cc(C)n(CC(=O)N4CCCCC4)n3)=C2)cc1	–	–	29.1 µM [rising, single point]
Cc1ccc(S(=O)(=O)NC(=O)c2cccn2C)cc1	6.82	–	–
CCN1C(=O)C(=O)N(CC(=O)N2CCC(C)Sc3ccccc32)C1=O (configuration not stated)	-4.02	–	0.82 µM [falling, single point]
Clc1cccc(-c2nc(NCC3CCCO3)c3ccccc3n2)c1 (configuration not stated)	2.15	–	0.517 µM [rising, full curve, poor fit]
COC(=O)CN1C(=S)N(c2ccc(OC)cc2)C(=O)C1CC(=O)Nc1ccc(F)cc1 (configuration not stated)	-2.58	–	2.31 µM [falling, partial curve]
COC(=O)c1ccc(/C=C/c2c(-c3ccsc3)oc3ccc(N4CCOCC4)cc23)cc1	-20.7	–	23.1 µM [falling, single point]
CCOC(=O)C1=C(C)N=c2s/c(=C\c3ccc(OC(C)=O)c(OCC)c3)c(=O)n2C1/C=C/c1ccccc1 (configuration not stated)	19.3	6.51 µM [rising, single point]	6.51 µM [rising, full curve, poor fit]
Cc1ccc(SCC(=O)Nc2cccc(C(=O)NC(C)(C)C)c2)cc1	17.8	–	23.1 µM [rising, partial curve, poor fit]
Cc1cccc(C)c1NC1=NC(=S)N(c2ccc(C(=O)O)cc2)C12CCCCC2	–	6.51 µM [rising, partial curve]	6.51 µM [rising, partial curve]
C/C(CC(=O)Nc1ccccn1)=N\NC(=O)C(=O)Nc1ccccc1C	9.81	–	0.651 µM [rising, full curve, poor fit]
Cc1ccccc1C(=O)NC(CC(C)C)C(=O)OCC(=O)c1c(N)n(C)c(=O)n(C)c1=O (configuration not stated)	-11.8	–	–
O=C(CSc1n[nH]c(-c2ccncc2)n1)NC1CCS(=O)(=O)C1 (configuration not stated)	-7.79	–	3.26 µM [rising, full curve]
O=c1sc(/C=N/Nc2ccccc2)c(Cl)n1Cc1ccccc1	-7.39	–	2.31 µM [rising, partial curve]
CCOc1ccc(/C(C)=N/NC(=O)C(OC)c2ccccc2)cc1 (configuration not stated)	-10.8	–	–
NC(=O)CNC1CC(=O)N(CCc2ccccc2)C1=O (configuration not stated)	-110	23.1 µM [falling, partial curve]	20.6 µM [falling, partial curve]
Cc1cccnc1Nc1ncnc(N)c1[N+](=O)[O-]	-11	1.84 µM [rising, partial curve, poor fit]	–

Single records (already shown). Values in the order: cell number change [%]	AC50 [1]	AC50 [2]
`CCOc1ccc(/C(C)=N/NC(=O)C(OC)c2ccccc2)cc1` (configuration not stated) is listed with -10.8	–	–
`CCOc1ccc(C2C(C(=O)c3ccco3)=C(O)C(=O)N2Cc2cccnc2)cc1` (configuration not stated) is listed with -34.2	–	3.66 µM [falling, full curve]
